Primary screen of a compound library

Source: ChEMBL document CHEMBL3988442, “University of Dundee, Small-Polar-MMV Screening Library” (2021).

Values are the deposited “Percent Effect”, in %.
The record does not define 0% and 100%; most values in the screen are far below 50% and negative numbers occur (in some assays of this library far below -100).
The compounds are a random part of those screened.
Two or more numbers in one place are separate tests of the same structure; such repeats can differ widely.

A: 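Growth of Mycobacterium tuberculosis over 4 days (cholesterol / DPPC medium with tyloxapol); the read-out is not stated. Concentration: 50 µM. Higher reads as more growth inhibition (inferred: compounds with an IC50 in retests scored well above the rest). Size under these conditions: about 69,000 compounds, about 370 of them at 50% or above in at least one test.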
B: 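Growth of Mycobacterium tuberculosis over 3 days (7H9 medium with glucose and tyloxapol); the read-out is not stated. Tested at 50 µM. Higher reads as more growth inhibition (inferred: compounds with an IC50 in retests scored well above the rest). About 69,000 compounds were tested under these conditions; 1.1% (about 760) showed 50% or more at least once.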

| Compound | A | B |
|---|---|---|
| `CN(CCOCC1CC1)C(=O)Nc1ccc([S+](C)[O-])c(F)c1` (stereo not shown) | -6.787 and -1.295 | -15.77 |
| `[H][C@]12CC[C@]([H])(CN(c3ncccn3)C1)N(CCC(=O)NCc1ccco1)C2` | -4.055 | -1.219 |
| `CC(=O)N1CC(=O)N(c2ccccc2)CC12CCN(Cc1cccs1)C2.O=C(O)C(F)(F)F` (stereo not shown) | 15.1 | 1.153 |
| `O=S(=O)(NCC(O)c1ccoc1)c1ccc(Br)s1` (stereo not shown) | -27.94 | -5.539 |
| `COCC(=O)NC(C)Cc1cccc(Br)c1` (stereo not shown) | 36.52 | 39.61 |
| `CC(C)(N)C(=O)N1CCC(c2nccnc2Oc2ccccc2F)CC1` | 8.256 | -6.537 |
| `COCc1ncn2c1CN(C(=O)c1cccc3cccnc13)CC2.O=C(O)C(F)(F)F` | -24.1 | -3.042 |
| `Cc1ccsc1CN(c1nc(CCN)nc2ccccc12)C1CC1` | 14.95 | 52.79 |
| `O=S(=O)(c1cn[nH]c1)N1CCCC(O)(CN2CCOCC2)CC1` (stereo not shown) | 9.293 and -3.908 | 7.254 |
| `O=S(=O)(Nc1cnc(N2CCOCC2)nc1)c1cccc(F)c1` | -4.913 | -16.48 |
| `O=C(O)C(F)(F)F.O=C(c1ccc[nH]1)N1CCO[C@]2(CCC[C@@H]2COc2cccnc2)C1` | 2.952 | 4.271 and 0.5464 |
| `c1cc(N2CCCC2c2cnccn2)ncn1` (stereo not shown) | -5.682 | 19.71 |
| `COc1cccc(N2CC3(CCN(Cc4nccn4C)C3)CC2=O)c1.O=C(O)C(F)(F)F` (stereo not shown) | 1.872 and -18.35 | -10.19 |
| `Cc1ccc(CCNC(=O)Cn2nc(C)n(Cc3ccccc3)c2=O)o1` | 22.68 | -13.79 |
| `CC(C)N(C)Cc1nnc2n1CCN(CC1CC1)CC2.O=C(O)C(F)(F)F.O=C(O)C(F)(F)F` | -1.955 | -11.15 and -9.89 |
| `Cc1nc(C)n(C2CCCN(C(=O)c3ccc(NC4CC4)nc3)C2)n1` (stereo not shown) | 4.395 | 24.57 |
| `CC(NC(=O)CCn1cccn1)c1ccc(-n2ccnn2)cc1` (stereo not shown) | -24.01 | -23.14 |
| `[H][C@]12C[C@H](C(=O)NC)N(C)[C@@]1([H])CN(C(=O)c1cnc(C)cn1)C2` | -11.16 | 4.303 |
| `Cc1cccc(CN2CCc3nnc(CN(C)C)n3CC2)n1` | -12.47 | 8.77 |
| `COc1ccnc(N2CCCN(Cc3ncc(C(C)C)o3)CC2)n1` | 0.9381 | 27.06 and 3.565 |
| `CN(CCCOc1ccccc1)Cc1nccn1C` | -1.679 | 3.075 |
| `CNC(=O)[C@@H]1C[C@@H](N)CN1c1nc(N2CCCC2)nc(C)c1C` | -14.07 | -5.835 |
| `CNC(=O)CCN(C)CC1(c2ccc(Br)cc2)CC1` | 9.523 | 5.461 |
| `CC(C)CN1CC2(CCN(C(=O)c3cnccn3)CC2)CC1=O` | -8.687 | -16.93 |
| `[H][C@]12CC[C@]([H])(CN(C(=O)c3ccncc3)C1)N(C(=O)c1cncnc1C)C2` | 1.144 and 7.612 | -38.98 |
| `N#CC1(C(=O)N2CCN(c3nccs3)CC2)CCCCC1` | -10.92 | 11.87 |
| `Cc1oc(C(=O)O)cc1S(=O)(=O)Nc1ccc(Cl)c(Cl)c1` | -8.662 | 16.97 |
| `Cn1ccnc1CNC(=O)CC1CCCCO1` (stereo not shown) | -8.921 and -13.3 | -28.83 |
| `Cc1cnn(CC2CCCCN2C(=O)Cc2ccc(C#N)cc2)c1` (stereo not shown) | 2.759 | 6.206 |
| `Cc1csc(CCNC(=O)C2CCN(CC(N)=O)CC2)n1` | -5.573 and -12.09 | -38.84 |
| `CCn1c(CN2CCN(CC(N)=O)CC2)nc2c(F)cccc21` | 5.564 | -14.47 |
| `COc1ccc(-c2nc(CC(=O)N(C)CCC#N)cs2)cc1OC` | -7.785 | -12.38 |
| `CCCc1cc(=O)[nH]c(-c2cccc(CN3CCCCCC3)c2)n1` | -47.18 | -37.28 |
| `CC(C)Nc1ccc(-c2ccnc3c2ccn3C)nn1` | 16.81 | 26.14 |
| `[H][C@]12CC[C@]([H])(CN(C(=O)c3ccncc3)C1)N(Cc1cnn(CC)c1)C2` | -19.12 | -37.4 |
| `Cc1c(-c2c(-c3ccccc3)ncn2[C@@H](C(=O)O)[C@H](C)O)cnn1C` | -14.41 | -19.06 |
| `CC(C)NC(=O)c1ccc2c(c1)nc1n2CCN(c2ccccc2)C1` | -3.253 | -7.562 |
| `O=C(NCC(=O)N1CCCC(c2ccccc2)CC1)c1ccoc1` (stereo not shown) | -3.296 | 5.377 |
| `O=C(CN1CCc2c(ncn2C2CC2)C1)NC1CCOCC1` | 5.964 | 22.1 |
| `COc1cc(-n2cc(CCO)cn2)ccc1NC(C)=O` | -3.795 | -9.62 |
| `[H][C@@]12CCCO[C@]1([H])[C@H](N(C)Cc1ccco1)CN(C(=O)c1ccoc1C)C2` | 3.445 | -19.07 |
| `CC(=O)N1CCC(c2cncc(Cl)n2)CC1` | -15.05 | -10.66 |
| `CC(C)COCC(NC(=O)c1ccccn1)c1ccco1` (stereo not shown) | 14.07 | 32.41 |
| `COc1cccc(CCC2CCCN(C(=O)c3cnccn3)C2)c1` (stereo not shown) | 0.2129 | -6.754 |
| `COCC(=O)N1CCCN(Cc2c(C)nc3ccc(Cl)cn23)CC1` | 1.235 and -14.5 | -22.89 |
| `Cn1ccnc1SCCNC(=O)c1cc(S(N)(=O)=O)ccc1F` | -7.616 | -33.04 |
| `CN(C)S(=O)(=O)N1CCN(C(=O)c2cc(-c3ccccc3)[nH]n2)CC1` | -26.96 | -2.715 |
| `CCC(Oc1ccccc1)c1nn2c(CN(CC)CC)nnc2s1` (stereo not shown) | -6.511 | 15.35 and 2.745 |
| `COc1ccc(F)cc1CSCC(=O)N(CCC#N)CCC#N` | -18.98 | 10.57 |
| `CC(C)CN1C(=O)C2(CCCC2)NC1c1cn(C)c(=O)n(C)c1=O` (stereo not shown) | -2.785 | -7.926 |
| `Cc1cc(C(=O)N2CCCC(C(=O)c3nccn3C)C2)c(=O)[nH]c1C` (stereo not shown) | -36.56 | -17.28 |
| `O=C(O)C(F)(F)F.O=C(O)C(F)(F)F.[H][C@@]12CCC(=O)N(Cc3cccc(C)n3)[C@]1([H])CCN2Cc1ccc(C)s1` | 2.746 | 9.004 |
| `CC(=O)NCC1CCC2(CCN(c3nccc(C4CCCC4)n3)CC2)O1` (stereo not shown) | 11.87 | -14.24 |
| `O=C(CNC(=O)C1CCCC1)NCc1cnn(-c2ccc(F)cc2F)c1` | 8.198 | 29.65 |
| `CCn1nc(CC(C)C)cc1C(=O)N1CCC2(CC1)[C@H](O)C[C@@H]2O` | -3.3 | 14.01 |
| `COCc1nc(N(C)C/C=C/c2ccccc2)c2cnn(C)c2n1` | 12.96 and 2.186 | 5.595 |
| `Cc1nc(CN2CCOCC3(CCN(c4ccccn4)C3)C2)cs1.O=C(O)C(F)(F)F.O=C(O)C(F)(F)F` (stereo not shown) | 4.257 | -3.774 |
| `CCC(C)(CNC(=O)c1ccon1)NC(=O)c1ccon1` (stereo not shown) | 18.81 | 13.39 |
| `O=C(c1ccnnc1)N1CCC2(CCN(c3ccsc3)C2=O)C1` (stereo not shown) | 7.137 | 14.42 and 0.1541 |
| `CCc1ccc(CN2CCCn3c(nc(Cn4ccnc4)cc3=O)C2)o1.O=C(O)C(F)(F)F.O=C(O)C(F)(F)F` | -2.986 | 13.77 |
| `CCOCC(=O)Nc1ccc(-n2ccc(C(N)=O)n2)cc1` | -9.622 | -7.673 and 2.279 |
| `CCN1CCOCC2(CCCN(C(=O)c3cccc(O)c3)C2)C1` (stereo not shown) | 4.228 and -9.187 | 3.102 |
| `O=C(NCc1ncc(-c2ccccc2)o1)NC1CCC(O)CC1` (stereo not shown) | -14.79 | -9.371 |
| `Cc1ccc2cc(CN(C)Cc3nccs3)c(=O)[nH]c2c1` | 4.084 | 10 and -17.49 |
| `CC(C)c1nn(C)c(N2CCOCC2)c1CNC(C)c1ccccn1` (stereo not shown) | 0.9451 | -0.2022 |
| `CC(C)NC(=O)N1CCc2nc(C(=O)NCc3ccccc3)sc2CC1` | -7.818 | 15.39 |
| `CC(O)CN1CCC(CN(C)CC(=O)NC2CCOCC2)CC1` (stereo not shown) | -0.7639 | 6.692 |
| `OC1CCN(c2ccc(CNc3nc4ccccc4o3)cc2F)CC1` | -3.887 | -10.95 |
| `CN1CCN(C(=O)CCn2ncc3ccccc32)CC(C(N)=O)C1` (stereo not shown) | -14.15 and -6.93 | -8.31 |

For reference, 4 entries once more:

Compound	A	B
COc1cccc(CCC2CCCN(C(=O)c3cnccn3)C2)c1 (stereo not shown)	0.2129	-6.754
COCC(=O)NC(C)Cc1cccc(Br)c1 (stereo not shown)	36.52	39.61
[H][C@]12CC[C@]([H])(CN(C(=O)c3ccncc3)C1)N(C(=O)c1cncnc1C)C2	1.144 and 7.612	-38.98
Cc1oc(C(=O)O)cc1S(=O)(=O)Nc1ccc(Cl)c(Cl)c1	-8.662	16.97